# Test results reported in PubChem BioAssay AID540276 (National Center for Advancing Translational Sciences (NCATS), 2011).
# The campaign covered roughly 300,000 compounds. About 5,400 (1.8%) were called active. The inconclusive results got no clear call from the source; some entries with a clear call stand among them for comparison. Calls come from the whole dose curve; tested in HEK293 cells. Potencies of inconclusive entries are doubtful fits and often do not repeat.
# Experiment: qHTS for inhibitors of binding or entry into cells for Marburg Virus
# Conditions: Marburg virus pseudotyped entry inhibition, cell reporter; activity change, negative = inhibition: at 37.8 µM (top of the series) unless noted
# % is set by controls: 0 for no effect and ±100 for the full control effect; potency is the fitted concentration of half-maximal effect.
Structure (SMILES),Potency,"activity change, negative = inhibition"
Cc1cc(C(=O)N/N=C/c2c(C)nn(-c3ccccc3)c2Cl)n[nH]1,"inconclusive: 14.1 µM [inhibitor, single point]",
CCOc1ccccc1N(C(=O)c1ccccc1Cl)C1=NC(C)(C)CS1,"inconclusive: 5.01 µM [inhibitor, single point]",
COC(=O)c1ccccc1NC(=O)c1noc2c1CSc1ccccc1-2,,inactive: -24.9% [at 46.1 µM]
CCC(CC)C(=O)Nc1cc(C(=O)OC)cc(C(=O)OC)c1,"inconclusive: 0.0058 µM [inhibitor, full curve, poor fit]",
Cc1cc2c(cc1C)C(c1ccccc1F)CC(=O)N2 (stereo not drawn),"inconclusive: 8.91 µM [inhibitor, partial curve, poor fit]",
COc1cc(-c2cc(C(=O)Nc3cccc(C(C)=O)c3)c3ccccc3n2)cc(OC)c1OC,"inconclusive: 8.91 µM [inhibitor, partial curve, poor fit]",
COC(=O)C1=C(C)N(Cc2ccccc2)C(=S)NC1CCc1ccccc1 (stereo not drawn),,inactive: 38.5% [at 14.2 µM]
COc1cccc(NS(=O)(=O)Cc2ccccc2)c1,"inconclusive: 20.6 µM [activator, single point]",
CCCSc1cc(N2CCN(C)CC2)nc(-c2ccc(OC)cc2)n1,"inconclusive: 25.1 µM [inhibitor, single point]",
CC1CN(C(=O)COC(=O)[C@@H](NC(=O)c2ccccc2Cl)C(C)C)CC(C)O1 (stereo partly drawn),,inactive: 25.1%
Nc1nc(SCC(=O)NCc2ccc3c(c2)OCO3)n[nH]1,"inconclusive: 12.6 µM [activator, single point]",
O=C1NC2C(O)C(O)C(O)C(O)C2c2cc3c(c(O)c21)OCO3 (stereo not drawn),"inconclusive: 0.1 µM [inhibitor, full curve, poor fit]",
CCCCNC(=S)NC(=O)c1ccccc1Br,,inactive: 12.2%
Cn1c(=O)c2c(ncn2Cc2nnc(N)s2)n(C)c1=O,"inconclusive: 14.1 µM [activator, partial curve, poor fit]",
Cc1cccc(-c2nnc(SCC(=O)N3CCOCC3)o2)c1,"inconclusive: 10 µM [activator, partial curve, poor fit]",
Cc1nc(N)nc(N)c1-c1ccc(Cl)c(Cl)c1,"inconclusive: 1.58 µM [inhibitor, partial curve, poor fit]",
c1ccc2c(COn3nnc4ccccc43)cccc2c1,,inactive: 1.69%
CCCOc1ccccc1OCC(=O)Nc1ccc(S(=O)(=O)N2CCCC2)cc1,"inconclusive: 35.5 µM [inhibitor, single point]",
COC(=O)C(Sc1nc(C)cc(C)c1C#N)c1ccccc1 (stereo not drawn),,inactive: 19.3%
COc1cc(OC)cc(C(=O)N[C@H](C(=O)NC2=NCCS2)C(C)C)c1,,inactive: 7.83%
Cc1nonc1CN(C)C(=O)c1cc(COc2ccc(F)cc2Cl)on1,"inconclusive: 12.6 µM [activator, partial curve, poor fit]",
Cc1nn(-c2ccccc2)c(N2CCCC2)c1/C=N/NC(=O)c1ccccc1O,"inconclusive: 7.08 µM [inhibitor, partial curve, poor fit]",
O=C(COc1cccc(NC(=O)c2ccco2)c1)c1ccc(F)cc1,"inconclusive: 10 µM [inhibitor, partial curve, poor fit]",

Structure (SMILES),Potency,"activity change, negative = inhibition"
CC1=NNC(=O)/C1=C\c1cn(-c2ccccc2)nc1-c1ccccc1,active: 3.98 µM,
COc1ccc(S(=O)(=O)Nc2ccc3c(c2)n(C)c(=O)n3C)cc1C,"inconclusive: 0.316 µM [inhibitor, full curve, poor fit]",
CC1(C)CC(=O)C2=C(C1)NC(SCC(=O)Nc1ccccc1)=C(C#N)C21CCCCC1,"inconclusive: 25.1 µM [inhibitor, single point]",
CCn1c(C)cc(C)c(C#N)c1=O,"inconclusive: 14.1 µM [activator, single point]",
O=C(NNC(=O)c1ccc(O)cc1O)c1ccc(Cl)cc1,"inconclusive: 6.31 µM [activator, full curve]",
O=S(=O)(Cc1ccccc1)N1CCNCC1,"inconclusive: 31.6 µM [activator, single point]",
Cn1c(=O)c2sccc2n2c(CCC(=O)N3CCN(c4ccccc4)CC3)nnc12,,inactive: -1.85% [at 46.1 µM]
CN(C)CCNC(=S)Nc1ccccc1Cl,,inactive: -12.7%
Cc1c(Cl)cccc1N(CC(=O)NC(C)c1ccccc1)S(C)(=O)=O (stereo not drawn),"inconclusive: 35.5 µM [inhibitor, single point]",
CCc1ccccc1NC(=S)N(Cc1ccco1)C(C)c1cccs1 (stereo not drawn),"inconclusive: 0.501 µM [inhibitor, full curve, poor fit]",
O=C(CNC(=S)N(Cc1ccc(F)cc1)C1CCCCC1)NCCN1CCOCC1,,inactive: -20.3% [at 46.1 µM]
CCNc1ccc(C(=O)N/N=C/c2c(C)nn(-c3ccccc3)c2N2CCCC2)cc1[N+](=O)[O-],,inactive: 8.54%
COc1ccccc1NC(=S)NC(=O)CC(C)C,,inactive: 2.18%
Cc1nc(SCC(=O)N(CC(C)C)C2CCS(=O)(=O)C2)c(C#N)c(C)c1C (stereo not drawn),"inconclusive: 5.62 µM [inhibitor, partial curve, poor fit]",
CCOC(=O)c1cc2c(=O)n3cccc(C)c3nc2n(CCOC)c1=NC(C)=O,,inactive: 5.54% [at 46.1 µM]
CCS(=O)(=O)Nc1cc(-c2cn3ccc(C)cc3n2)ccc1C,"inconclusive: 3.98 µM [activator, partial curve, poor fit]",
CCOc1ccccc1C(=O)N(Cc1ccc(N(C)C)cc1)CC1CCCO1 (stereo not drawn),,inactive: 10.3% [at 46.1 µM]
COc1ccc(CC(=O)NNC(=S)NCC2CC2)cc1OC,"inconclusive: 3.98 µM [inhibitor, single point]",
CC(C)CC(=O)Nc1ccc(Cc2ccncc2)cc1,,inactive: 7.63% [at 46.1 µM]
Cc1ccc(Oc2c(C)nc(-c3ccccc3)[nH]c2=O)cc1,"inconclusive: 6.31 µM [inhibitor, full curve]",
O=C(NCCCc1ccccc1)C1CC(=O)N(c2ccc3c(c2)OCCO3)C1 (stereo not drawn),"inconclusive: 18.3 µM [activator, partial curve, poor fit]",
Cc1ccc(-c2nnn(CC(=O)N(c3cnc4ccccc4c3)C(C(=O)NC3CCCC3)c3ccncc3)n2)o1 (stereo not drawn),"inconclusive: 35.5 µM [inhibitor, single point]",
CCOC(=O)C1CCCN(C(=S)Nc2cccc(Cl)c2C)C1 (stereo not drawn),"inconclusive: 10 µM [inhibitor, partial curve, poor fit]",

# Pulled by compound from the list above (2):
Structure (SMILES),Potency,"activity change, negative = inhibition"
COc1ccc(S(=O)(=O)Nc2ccc3c(c2)n(C)c(=O)n3C)cc1C,"inconclusive: 0.316 µM [inhibitor, full curve, poor fit]",
O=S(=O)(Cc1ccccc1)N1CCNCC1,"inconclusive: 31.6 µM [activator, single point]",

# One compound at a time (already shown):
# CCNc1ccc(C(=O)N/N=C/c2c(C)nn(-c3ccccc3)c2N2CCCC2)cc1[N+](=O)[O-] in the list: activity change, negative = inhibition: inactive: 8.54%
# Cc1ccc(Oc2c(C)nc(-c3ccccc3)[nH]c2=O)cc1 in the list: Potency: inconclusive: 6.31 µM [inhibitor, full curve]

# Next part:

Structure (SMILES),Potency,"activity change, negative = inhibition"
N/C(=N\O)c1cn(Cc2ccccc2Cl)c2ccccc12,"inconclusive: 25.1 µM [inhibitor, single point]",
O=C(OCC(=O)N1CCc2ccccc21)c1c2c(nc3ccccc13)CCCC2,"inconclusive: 22.4 µM [inhibitor, single point]",
Cn1c(CCNC(=O)C2CCCCC2)nc2cc([N+](=O)[O-])ccc21,"inconclusive: 0.112 µM [activator, full curve, poor fit]",
CC1(C)N=C(SCC(=O)Nc2ccc(Cl)cc2)C(c2ccccc2)=N1,"inconclusive: 7.3 µM [inhibitor, partial curve, poor fit]",
COCCNc1nnc(SCC(=O)NNC(=O)c2ccccc2)s1,,inactive: 1.94%
CCC(O)(CC)C(=O)NN(C(=O)CCl)c1ccccc1,"inconclusive: 0.0731 µM [inhibitor, partial curve, poor fit]",
C[C@]12CCC3C(CC[C@H]4C[C@H](O)CC[C@]34C)C1C[C@@H](O)[C@@H]2O (stereo partly drawn),,inactive: 10.8% [at 46.1 µM]
CCOC(=O)c1c(N)c(C#N)c2n1CCCC2,"inconclusive: 35.5 µM [inhibitor, single point]",
Cc1ccc2cccc(NC(=O)c3cccc4ccccc34)c2n1,"inconclusive: 22.4 µM [inhibitor, single point]",
O=S1(=O)CC(N2CCC(Cc3ccccc3)CC2)CN1C1CCCC1 (stereo not drawn),"inconclusive: 19.9 µM [activator, single point]",
COc1cccc(NC(=O)C2CCCN2C(=O)NC2CCCCC2)c1 (stereo not drawn),,inactive: 21.3% [at 46.1 µM]
O=c1c(Cl)c(N2CCCCC2)cnn1-c1nc2ccccc2[nH]1,"inconclusive: 1.83 µM [inhibitor, full curve, poor fit]",
COc1ccc(/C=C/c2nc(N)nc(-c3ccccc3O)n2)cc1OC,"inconclusive: 25.1 µM [inhibitor, single point]",
Cc1cc(NC(c2nnc(-c3ccccc3)o2)c2ccccc2F)ccc1Br (stereo not drawn),"inconclusive: 3.98 µM [inhibitor, full curve, poor fit]",
COc1ccc(NCc2ccccc2-c2nnc(-c3ccccc3)o2)cc1Cl,"inconclusive: 25.1 µM [activator, single point]",
Cc1sc(NC(=O)c2cccs2)nc1-c1ccccc1,"inconclusive: 29.1 µM [inhibitor, single point]",
O=C(N/N=C/c1cccs1)C1COc2ccccc2O1 (stereo not drawn),,inactive: -19.1%
Cc1ccccc1C(=O)/C=C1\NC(=O)CS1,"inconclusive: 5.8 µM [activator, full curve, poor fit]",
CCS(=O)(=O)N1Cc2ccccc2CC1C(=O)Nc1nc2ccccc2[nH]1 (stereo not drawn),"inconclusive: 3.66 µM [activator, single point]",
COc1ccccc1-c1cc(C(F)(F)F)nc(S(=O)(=O)CCCC(=O)Nc2cccnc2Cl)n1,"inconclusive: 2.24 µM [inhibitor, full curve, poor fit]",
CCC1(CC)C(=O)N(Cc2ccccc2)C(=O)N(Cc2ccccc2)C1=O,"inconclusive: 20.6 µM [inhibitor, single point]",
